## Library screen at single concentrations

By UniProt entry, the sequences of proteins in these tests, tags left out. Residues count along the entry.
UniProt Q8IDJ8, 1-583: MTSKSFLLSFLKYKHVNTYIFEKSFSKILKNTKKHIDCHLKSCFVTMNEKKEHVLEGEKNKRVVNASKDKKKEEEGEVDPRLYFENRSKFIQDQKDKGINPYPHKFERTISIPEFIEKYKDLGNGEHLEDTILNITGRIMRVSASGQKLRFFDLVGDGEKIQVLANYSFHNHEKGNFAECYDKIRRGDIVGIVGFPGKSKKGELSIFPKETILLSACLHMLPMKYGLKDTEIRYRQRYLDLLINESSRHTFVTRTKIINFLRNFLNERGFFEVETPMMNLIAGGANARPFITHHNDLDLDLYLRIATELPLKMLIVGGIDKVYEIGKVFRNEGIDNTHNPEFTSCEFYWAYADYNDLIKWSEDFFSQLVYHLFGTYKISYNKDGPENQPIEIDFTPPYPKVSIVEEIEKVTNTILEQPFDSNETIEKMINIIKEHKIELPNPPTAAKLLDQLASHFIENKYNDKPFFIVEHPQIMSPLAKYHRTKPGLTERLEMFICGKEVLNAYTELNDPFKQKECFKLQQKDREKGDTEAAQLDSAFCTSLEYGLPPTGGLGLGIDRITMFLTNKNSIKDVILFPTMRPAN

The filed quantity is “Percent Effect” (%). How 0% and 100% were set is not recorded. Most values in the screen are low, and negative values occur. The compounds are a random part of those screened.

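Lysine-tRNA ligase, Plasmodium falciparum 3D7 (UniProt Q8IDJ8). Enzyme assay of the cytosolic lysyl-tRNA synthetase in 384-well plates, read by luminescence. Tested at 30 µM. Higher reads as stronger inhibition, judged from the few compounds that gave an IC50. Size under these conditions: about 69,000 compounds, about 49 of them at 50% or above in at least one test.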

| # | Compound | effect |
|---|---|---|
| 1 | `Cc1ccc(CN(Cc2[nH]cnc2C)C2CC(C)(C)NC(C)(C)C2)o1` | 2.285% |
| 2 | `CNC(=O)c1cc(C)n(-c2ccccc2)n1` | 2.316% |
| 3 | `CC(C)(C)CC(=O)NCC(=O)Nc1ccn(CCCn2ccnc2)n1` | 2.644% |
| 4 | `CCOc1cc(CNCc2cnc(C)cn2)c(Cl)cc1OC(C)C` | -1.703% |
| 5 | `CCN1C(=O)C2(CCOCC2)c2cc(NC(=O)c3cnccn3)ccc21` | 5.841% |
| 6 | `CCc1c(C(=O)NC2CCS(=O)(=O)C2)cnn1-c1ccc(C)cc1` (configuration not stated) | 1.786% |
| 7 | `C=Cc1ccc(CSc2nc3c(c(=O)[nH]2)CN(CCC)CC3)cc1` | 2.071% |
| 8 | `CCC(=O)NCCCn1c(-c2cccnc2C)cc2cccnc21` | 1.801% |
| 9 | `CC(C)N1CCC(Nc2ccn(CCC#N)n2)C1=O` (configuration not stated) | 0.9302% |
| 10 | `O=C(NCCN1CCOCC1)N1CCN(c2ccccc2)CC1` | 6.075% |
| 11 | `N#CCCN(Cc1ccccn1)Cn1cc(Cl)cn1` | -4.112% |
| 12 | `OC(CNCc1nnc2ccccn12)c1ccc2c(c1)OCCCO2` (configuration not stated) | 9.218% |
| 13 | `CC(C)(C)CN1CCCC2(CCN(C(=O)c3ccc(O)nc3)C2)C1` (configuration not stated) | 5.205% |
| 14 | `CNC(=O)c1ccc(OC)c(NCc2ncc(-c3cccs3)o2)c1` | 7.176% |
| 15 | `O=C(O)CCc1nc2nccc(C(F)(F)F)n2n1` | 5.211% |
| 16 | `CC1CN(CC(=O)N2CCCC2)CCN1c1ccc2nncn2n1` (configuration not stated) | 4.301% |
| 17 | `CC(NS(=O)(=O)CCCC#N)c1cccc(-n2cccn2)c1` (configuration not stated) | -0.8959% |
| 18 | `CN(Cc1cn2c(n1)CN(C(=O)N(C)C)CC2)Cc1ccco1` | 4.162% |
| 19 | `CN(CCC1CCCCO1)c1nncc(-c2ccccc2)n1` (configuration not stated) | 4.154% |
| 20 | `COc1ccc2c(c1)OCC(CNC(=O)c1ccc3[nH]nnc3c1)C2` (configuration not stated) | 5.682% |
| 21 | `Cc1ccccc1[C@@H]1CN(CCCS(=O)(=O)N(C)C)C[C@H]1C(=O)O` | -2.287% |
| 22 | `CCC[C@H]1CN(Cc2cc(C)no2)C[C@@H]1NC(=O)C1(COC)CCC1` | -0.229% |
| 23 | `Cc1cnn(CC2CCCN2Cc2noc(C(C)(C)C)n2)c1` (configuration not stated) | -0.5314% |
| 24 | `O=C(O)CNC(=O)Cc1csc(-c2ccccc2F)n1` | 3.713% |
| 25 | `CCOCc1cnc2n1CCN(C(=O)Cc1cccs1)C2C` (configuration not stated) | 5.337% |
| 26 | `CCCc1noc(CCC(=O)N2CCN(C)CC2c2ccccc2)n1` (configuration not stated) | -1.045% |
| 27 | `CNC(=O)CN1CC[C@H]2CN(C(=O)c3ccoc3)C[C@H]2C1` | 4.19% |
| 28 | `Cc1ccccc1C(=O)NCc1ccnc(N(C)C)c1` | 0.6186% |
| 29 | `O=C(NCc1cn2c(n1)CN(Cc1ccncc1)CC2)C1CCC1` | 1.818% |
| 30 | `O=C1CCCCCN1Cc1cccc(OC(F)F)c1` | 1.041% |
| 31 | `CN(Cc1cccc(C(=O)Nc2ccnn2C)c1)CC1(C)COC1` | 2.425% |
| 32 | `Cc1cc(C(=O)N2CCC(c3nccn3Cc3ccncc3)CC2)no1` | 1.379% |
| 33 | `CC(C)CNC(=O)c1[nH]nc(C2CC2)c1Br` | 0.3578% |
| 34 | `Cc1cn[nH]c1C1CCCCN1C(=O)CCN1CCCCCC1` (configuration not stated) | 7.027% |
| 35 | `CN(C)c1ncccc1CNC(=O)NCc1ccc(Cl)s1` | 1.342% |
| 36 | `Cc1nc2ccccc2nc1CN1CCCC1Cn1cccn1` (configuration not stated) | -3.389% |
| 37 | `CN(Cc1ccccc1F)C(=O)COC(=O)c1cc(Cl)c[nH]1` | -5.615% |
| 38 | `CN(C)S(=O)(=O)c1ccc2c(c1)N(Cc1nccn1C)CCC2` | 8.806% |
| 39 | `Cc1cccc(C(=O)Nc2cccc3c2C(=O)NC3)n1` | -1.709% |
| 40 | `Cc1ccnc(C2CCN(C(=O)c3cnn(C)c3)C2)n1` (configuration not stated) | -0.6515% |
| 41 | `CSC(C)C(=O)Nc1ccnn1-c1ccccc1C` (configuration not stated) | -3.113% |
| 42 | `Cc1ccc(N2CCCN(C(=O)c3cc(Cl)c[nH]3)CC2)nn1` | 4.448% |
| 43 | `Cc1ccsc1CN(Cc1ncccc1C(=O)O)C1CC1` | 4.393% |
| 44 | `Cc1csc(CN2C[C@@H]3COC[C@]3(COCC(=O)N(C)C)C2)n1` | -1.945% |
| 45 | `CCO[C@@H]1CC[C@H]2[C@H]1OCCN2C(=O)c1ccc(OC)c(F)c1` | 11.22% |
| 46 | `CCCn1c(C)c(CC(=O)N(C)CC(=O)OC)c2c1CC(C)(C)CC2=O` | 0.1675% |
| 47 | `COCCC1(CO)CCCN(Cc2cc(C(F)(F)F)ccc2F)C1` (configuration not stated) | 3.763% |
| 48 | `CC(=O)N1CCCC1CCc1ccnc(-c2cncnc2)c1` (configuration not stated) | 1.962% |
| 49 | `CCOCc1cccc(S(=O)(=O)Nc2ncc(C)s2)c1` | 3.63% |
| 50 | `CNc1nc(C(=O)N2C[C@@H]3CCN(C)[C@@H]3C2)cs1` | 6.168% |
| 51 | `Cc1ccc(N2CCCC(N(C)Cc3cc(C)on3)C2)nn1` (configuration not stated) | 1.102% |
| 52 | `O=C(O)c1cc2c(nc1-c1ccncc1)CCN(C1CCOC1)CC2` (configuration not stated) | 2.836% |
| 53 | `Cc1n[nH]c(C)c1CCC(=O)NCC1CCCN(C2CCCC2)C1` (configuration not stated) | -4.415% |
| 54 | `CC(C)(CNC(=O)c1ccco1)NC(=O)OC(C)(C)C` | 0.4158% |
| 55 | `CS(=O)(=O)N1CCCCCC1C1CCN(Cc2nc(C3CC3)no2)CC1` (configuration not stated) | -3.269% |
| 56 | `CC(=O)NCCNC(=O)C(c1ccccc1C)N(C)C` (configuration not stated) | -4.69% |
| 57 | `FC(F)(F)c1nc(NC2CCCC2)c2ccccc2n1` | 2.544% |
| 58 | `Cc1cn2c(n1)CCC(NC(=O)c1[nH]nc(C)c1Br)C2` (configuration not stated) | -0.6103% |
| 59 | `Cn1cccc1C(=O)N1CCC(O)(CN2CCc3ccccc3C2)C1` (configuration not stated) | 3.794% |
| 60 | `Cc1ccc(N2C[C@H]3CCC[C@@]3(COc3cccnc3)C2)nn1` | 5.179% |
| 61 | `NC(=O)CC1CCN(S(=O)(=O)c2cnn(-c3ccccc3)c2)CC1` | 1.368% |
| 62 | `Cc1ccoc1C(=O)N1CC[C@@H]2O[C@@H](C)C[C@H]2C1` | 2.222% |
| 63 | `CCN(C)C[C@@H]1CN(S(=O)(=O)c2ccc(OC)cc2)C[C@@H]1CO` | -4.308% |
| 64 | `O=C(CCCn1cncn1)N1CCC2(CCCN(CC3CC3)C2=O)C1` (configuration not stated) | 5.562% |
| 65 | `CCS(=O)(=O)N1CCOC2(CCCN(c3ncc(F)cn3)C2)C1` (configuration not stated) | 8.24% |
| 66 | `c1cncc(CN2CCn3cc(Cn4cccn4)nc3C2)c1` | -3.475% |
| 67 | `Cc1noc(Cl)c1CCC(=O)N1CCN(c2ccccc2)CC1` | -0.5953% |
| 68 | `O=C(C1CCCO1)N1CCC2(CC1)COCCN2CC1CC1` (configuration not stated) | 3.124% |
| 69 | `CC(C)CC(C(=O)N1CCCSCC1)N1CCCCC1=O` (configuration not stated) | 1.695% |
| 70 | `NC(=O)CN1CCCN(C(=O)c2ccn(-c3ccccc3)n2)CC1` | 8.572% |
| 71 | `CC(CN1CCCC1=O)NC(=O)c1cc(Cl)c2c(c1)OCO2` (configuration not stated) | 3.34% |
| 72 | `COc1ccccc1CC(=O)NC(C)c1nc2cccnc2n1C(C)C` (configuration not stated) | 1.58% |
| 73 | `O=C1CO[C@@H]2CN(CC3CCOCC3)C[C@H]2N1Cc1ccncc1` | -0.8146% |
| 74 | `CCN1C(=O)C(c2ccccc2)CC12CCN(CCO)CC2` (configuration not stated) | 1.904% |
| 75 | `CCn1cnnc1C1CCN(C(=O)COCCc2ccccc2)CC1` | 5.674% |
| 76 | `CCN1CCOC(CNCc2ccccc2OCC(=O)N(C)C)C1` (configuration not stated) | 1.915% |
| 77 | `Cc1cc(C)nc(NC2CC(=O)N(C(C)(C)C)C2)n1` (configuration not stated) | 6.562% |
| 78 | `CCN(C)S(=O)(=O)N(CC)Cc1ccc2c(c1)OCO2` | 6.411% |
| 79 | `Cc1nnc(SCC(=O)NCc2ccc3c(c2)CCC(=O)N3)n1C` | 5.322% |
| 80 | `O=C(NC1CC1)N1C[C@H]2CN(Cc3cccc(F)c3)C(=O)[C@H]2C1` | 2.146% |
| 81 | `O=C(NCCc1ccccc1)c1cccc(S(=O)(=O)NC2CCOC2)c1` (configuration not stated) | -4.698% |
| 82 | `CNc1nccnc1C1CN(C(=O)c2c[nH]cn2)CCO1` (configuration not stated) | 2.06% |
| 83 | `c1cncc(-c2cccc(-c3ccn(CCN4CCCCC4)n3)c2)c1` | 2.57% |

Repeated from the top, 6 entries:

Compound	effect
Cc1ccc(CN(Cc2[nH]cnc2C)C2CC(C)(C)NC(C)(C)C2)o1	2.285%
CNC(=O)c1cc(C)n(-c2ccccc2)n1	2.316%
CC(C)(C)CC(=O)NCC(=O)Nc1ccn(CCCn2ccnc2)n1	2.644%
CCOc1cc(CNCc2cnc(C)cn2)c(Cl)cc1OC(C)C	-1.703%
CCN1C(=O)C2(CCOCC2)c2cc(NC(=O)c3cnccn3)ccc21	5.841%
CCc1c(C(=O)NC2CCS(=O)(=O)C2)cnn1-c1ccc(C)cc1 (configuration not stated)	1.786%

The values are deposited in ChEMBL (CHEMBL3988442, “University of Dundee, Small-Polar-MMV Screening Library” (2021)).